{"source": "PubChem BioAssay AID652259 (Drosophila RNAi Screening Center, 2013)", "purpose": "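Knock-downs that push a Wingless-driven reporter up or down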 (primary screen)", "system": "Drosophila clone 8 imaginal disc epithelial cells", "reagent": "long dsRNA against Drosophila genes", "challenge": "pathway stimulated by co-transfected Wingless expression plasmid", "measured": "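Dual luciferase reads per well after Wingless plasmid stimulation: reporter firefly light and Renilla control light; activity is firefly divided by Renilla, a ratio not deposited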", "reading the numbers": "firefly reporter light: higher = more Wg reporter light, before normalisation; Renilla control light: higher = more transfected or surviving cells", "call rule": "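a knock-down is a candidate when at least two out of four statistical tests show it departing from its plate mean; one test alone signals a weak candidate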", "calls": "active = candidate regulator (raises or lowers reporter); inactive = not a candidate", "note": "The screen tested about 22,000 reagents; shown is an unselected part of those that have a named target and a result. In the full data, 233 (1.1%) are marked active. 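Light values are raw, unnormalised plate reads; the ratio scores behind the reporter calls were not deposited.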 A plus sign joins genes that one reagent is predicted to hit. Not given: the amount of reagent, the time to read-out, the dose of the treatment."}
{"target": "CG6847 (GeneID 32778)", "dsRNA": "DRSC19213", "firefly reporter light, replicate 1": 3520, "Renilla control light, replicate 1": 1405, "activity call": "inactive"}
{"target": "CG6847 (GeneID 32778)", "dsRNA": "DRSC20009", "firefly reporter light, replicate 1": 14490, "Renilla control light, replicate 1": 7286, "activity call": "inactive"}
{"target": "CG14881 (GeneID 41990)", "dsRNA": "DRSC15005", "firefly reporter light, replicate 1": 12496, "Renilla control light, replicate 1": 2816, "activity call": "inactive"}
{"target": "CG43740 (GeneID 31962)", "dsRNA": "DRSC17848", "firefly reporter light, replicate 1": 18864, "Renilla control light, replicate 1": 8346, "activity call": "inactive"}
{"target": "CG43740 (GeneID 31962)", "dsRNA": "DRSC17994", "firefly reporter light, replicate 1": 19824, "Renilla control light, replicate 1": 13154, "activity call": "inactive"}
{"target": "Ggamma30A (GeneID 45234)", "dsRNA": "DRSC02715", "firefly reporter light, replicate 1": 1845, "firefly reporter light, replicate 2": 5350, "Renilla control light, replicate 1": 837, "Renilla control light, replicate 2": 2647, "activity call": "inactive"}
{"target": "Ggamma30A (GeneID 45234)", "dsRNA": "DRSC03331", "firefly reporter light, replicate 1": 2912, "firefly reporter light, replicate 2": 5644, "Renilla control light, replicate 1": 945, "Renilla control light, replicate 2": 3008, "activity call": "inactive"}
{"target": "CG2921 (GeneID 37515)", "dsRNA": "DRSC04324", "firefly reporter light, replicate 1": 9818, "Renilla control light, replicate 1": 2514, "activity call": "inactive"}
{"target": "CG17349 (GeneID 35209)", "dsRNA": "DRSC02610", "firefly reporter light, replicate 1": 1792, "firefly reporter light, replicate 2": 5877, "Renilla control light, replicate 1": 765, "Renilla control light, replicate 2": 2173, "activity call": "inactive"}
{"target": "Syt14 (GeneID 40544)", "dsRNA": "DRSC12331", "firefly reporter light, replicate 1": 18213, "Renilla control light, replicate 1": 5012, "activity call": "inactive"}

Continued, starting with the last 3 of the part before.
{"target": "CG2921 (GeneID 37515)", "dsRNA": "DRSC04324", "firefly reporter light, replicate 1": 9818, "Renilla control light, replicate 1": 2514, "activity call": "inactive"}
{"target": "CG17349 (GeneID 35209)", "dsRNA": "DRSC02610", "firefly reporter light, replicate 1": 1792, "firefly reporter light, replicate 2": 5877, "Renilla control light, replicate 1": 765, "Renilla control light, replicate 2": 2173, "activity call": "inactive"}
{"target": "Syt14 (GeneID 40544)", "dsRNA": "DRSC12331", "firefly reporter light, replicate 1": 18213, "Renilla control light, replicate 1": 5012, "activity call": "inactive"}
{"target": "MBD-like (GeneID 41151)", "dsRNA": "DRSC16996", "firefly reporter light, replicate 1": 7213, "Renilla control light, replicate 1": 2877, "activity call": "inactive"}
{"target": "wts (GeneID 43651)", "dsRNA": "DRSC17096", "reporter change call, replicate 1": "Wg reporter activity raised", "firefly reporter light, replicate 1": 6896, "Renilla control light, replicate 1": 552, "activity call": "active"}
{"target": "Traf4 (GeneID 33638)", "dsRNA": "DRSC00445", "firefly reporter light, replicate 1": 3592, "firefly reporter light, replicate 2": 4924, "Renilla control light, replicate 1": 1266, "Renilla control light, replicate 2": 1657, "activity call": "inactive"}
{"target": "Traf4 (GeneID 33638)", "dsRNA": "DRSC00794", "firefly reporter light, replicate 1": 10941, "Renilla control light, replicate 1": 5612, "activity call": "inactive"}
{"target": "CG6614 (GeneID 34583)", "dsRNA": "DRSC02974", "firefly reporter light, replicate 1": 5611, "Renilla control light, replicate 1": 3164, "activity call": "inactive"}
{"target": "CG9701 (GeneID 39872)", "dsRNA": "DRSC11093", "firefly reporter light, replicate 1": 4882, "Renilla control light, replicate 1": 2161, "activity call": "inactive"}
{"target": "CG7889 (GeneID 32916)", "dsRNA": "DRSC20066", "firefly reporter light, replicate 1": 2899, "firefly reporter light, replicate 2": 9174, "Renilla control light, replicate 1": 976, "Renilla control light, replicate 2": 4138, "activity call": "inactive"}
{"target": "CG5103 (GeneID 40012)", "dsRNA": "DRSC10481", "firefly reporter light, replicate 1": 5328, "Renilla control light, replicate 1": 2397, "activity call": "inactive"}
{"target": "CG6791 (GeneID 41391)", "dsRNA": "DRSC16118", "firefly reporter light, replicate 1": 10374, "Renilla control light, replicate 1": 3385, "activity call": "inactive"}
{"target": "zye (GeneID 40255)", "dsRNA": "DRSC11784", "firefly reporter light, replicate 1": 11435, "Renilla control light, replicate 1": 4806, "activity call": "inactive"}
{"target": "CG42686 (retired record) (GeneID 42674)", "dsRNA": "DRSC15247", "firefly reporter light, replicate 1": 11170, "Renilla control light, replicate 1": 3017, "activity call": "inactive"}
{"target": "CG42686 (retired record) (GeneID 42674)", "dsRNA": "DRSC15248", "firefly reporter light, replicate 1": 17129, "Renilla control light, replicate 1": 13988, "activity call": "inactive"}
{"target": "COX7AL2 (GeneID 5740746)", "dsRNA": "DRSC00099", "firefly reporter light, replicate 1": 16442, "Renilla control light, replicate 1": 10085, "activity call": "inactive"}
{"target": "uncNacbeta (GeneID 33232)", "dsRNA": "DRSC00326", "firefly reporter light, replicate 1": 4044, "firefly reporter light, replicate 2": 4284, "Renilla control light, replicate 1": 1424, "Renilla control light, replicate 2": 2733, "activity call": "inactive"}
{"target": "CG42726 + CG42727", "dsRNA": "DRSC14485", "firefly reporter light, replicate 1": 5258, "Renilla control light, replicate 1": 1735, "activity call": "inactive"}
